Measurements: publication PMC11718245
No constants are given. Whether binding was seen depends on the method and setting. In cells and extracts the contact can be indirect. Some binding calls cover weakened binding; strength is not graded here.

Amino acid sequences for entries named in this document (tags omitted).
UniProt P08047: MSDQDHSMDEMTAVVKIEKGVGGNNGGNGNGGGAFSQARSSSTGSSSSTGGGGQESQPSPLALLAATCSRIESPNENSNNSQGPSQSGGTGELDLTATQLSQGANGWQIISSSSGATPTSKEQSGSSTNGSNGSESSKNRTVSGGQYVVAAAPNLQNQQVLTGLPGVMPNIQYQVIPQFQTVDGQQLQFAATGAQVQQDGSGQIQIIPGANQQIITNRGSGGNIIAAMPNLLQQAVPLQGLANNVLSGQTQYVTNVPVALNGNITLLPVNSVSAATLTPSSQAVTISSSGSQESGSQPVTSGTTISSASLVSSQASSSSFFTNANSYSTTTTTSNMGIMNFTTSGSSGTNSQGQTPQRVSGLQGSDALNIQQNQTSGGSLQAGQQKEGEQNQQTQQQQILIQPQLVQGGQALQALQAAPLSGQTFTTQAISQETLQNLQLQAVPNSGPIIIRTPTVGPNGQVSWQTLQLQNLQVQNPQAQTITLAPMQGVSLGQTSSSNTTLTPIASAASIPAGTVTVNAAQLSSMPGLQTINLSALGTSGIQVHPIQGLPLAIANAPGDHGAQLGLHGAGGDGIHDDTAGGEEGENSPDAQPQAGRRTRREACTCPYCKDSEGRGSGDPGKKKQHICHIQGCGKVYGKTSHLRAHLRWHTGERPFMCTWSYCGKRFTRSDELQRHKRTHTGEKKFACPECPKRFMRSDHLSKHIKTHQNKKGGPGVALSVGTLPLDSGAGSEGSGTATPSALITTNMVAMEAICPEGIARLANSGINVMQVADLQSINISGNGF

Target: FGR (human (endogenous in LoVo)) (UniProt P09769)
Assay: co-IP; LoVo lysates (200 mg) treated with FGR antibodies (Santa Cruz Biotechnology, sc-166079) for one night at 4 °C and Protein A Sepharose beads for three hours; immunocomplexes examined by western blotting

binding: binds
Substance: SP1 (from UniProt P08047 1-785)
